Data taken from US20090162351A1, “Transdiscal administration of inhibitors of p38 MAP kinase” (DePuy Spine, Inc., priority 2007, published 2009).
At least one structure is not confirmed: it was looked up by name or label, or the drawing left a doubt.

Experiments:
[1] = tested on: bovine chondrocyte pellets / ARC tissues stimulated with IL-1β; assay: Chondrocyte pellet / ARC culture model: GAG degradation assay; format: cell-based; settings: diacerein at 5.4 μM, rhein at 3.5 μM
Source text: A chondrocyte pellet culture model was developed for in vitro high throughput screening of therapeutic compounds for inhibition of IL-1β-stimulated matrix degradation. The chondrocyte pellet culture model can be used to detect various potential therapeutic compounds effective in blocking different processes caused by IL-1β stimulation. For example, IL-1β stimulation results in increased glycosaminoglycan (GAG) degradation, prostaglandin E2 (PGE2) synthesis and total nitrite/nitrate production. Compounds with different mechanisms of action may inhibit the increase of one or two or all three of these parameters. For this reason, screening by, for example, measuring only GAG release would be limited to detection of a specific class of inhibitors and may not detect compounds with diversified mechanisms of function which may be involved in inhibition of the IL-1 stimulated inflammatory process. The development of the chondrocyte pellet culture assay system in a 96-well plate made possible large-scale screening of potential therapeutic compounds with different mechanisms of action.
Calf articular cartilage was obtained from the knee joints of eight to twelve month old animals and was processed within twenty-four hours after sacrifice. […]

[2] = tested on: IL-1β-stimulated NO production in bovine chondrocyte pellets / ARC tissues; assay: Chondrocyte pellet / ARC culture model: total nitrite and nitrate assay; format: cell-based; settings: rhein at 3.5 μM
Source text: Calf articular cartilage was obtained from the knee joints of eight to twelve month old animals and was processed within twenty-four hours after sacrifice. After removal of muscle and ligament, the cartilage was kept moist using phosphate buffer solution (PBS) to prevent tissue dehydration, and was aseptically peeled off from subchondral bone with a scalpel, and the cartilage pieces were further minced into smaller pieces (˜0.3-0.5×˜0.2-0.5 cm cubes). […] Chondrocytes were then enzymatically isolated from the tissue by incubation for overnight at 37° C. with gentle agitation in 0.2% collagenase in Dulbecco's modified eagle media (DMEM). After removal of tissue debris by filtration through cell strainer and the residual collagenase by 3× wash in PBS, cells were finally resuspended at a density of 2.5×10^6 cells/ml in chondrocyte medium. […]
Nitrate/Nitrite levels were measured using the Griess reaction (Green L. C. et al., “Analysis of Nitrate, Nitrite, and [15N]nitrate in Biological Fluids,” Anal. Biochem. 126: 131-138 (1982)) with a Nitrate/Nitrite Colorimetric Assay Kit (Cayman Chemicals), the contents of which are incorporated herein by reference. […] Photometric measurement of the absorbance at 540 or 550 nm due to this azo chromophore accurately determined nitrite concentration. […]

SMILES: O=C(O)c1cc(O)c2c(c1)C(=O)c1cccc(O)c1C2=O [Rhein, reference compound]
- inhibitory effect for GAG vs lower concentrations (in words) [1]: weaker inhibitory effect
- effect for NO vs lower concentrations (in words) [2]: weaker effect
